From article doi:10.1101/2021.03.07.432812
No constants are given. Whether binding was seen depends on the method and setting. Binding seen in cells or lysates may run through a third protein. Some entries that bind do so weakly or less than the wild type.

Amino acid sequences for entries named in this document (tags omitted).
UniProt Q9BUA3: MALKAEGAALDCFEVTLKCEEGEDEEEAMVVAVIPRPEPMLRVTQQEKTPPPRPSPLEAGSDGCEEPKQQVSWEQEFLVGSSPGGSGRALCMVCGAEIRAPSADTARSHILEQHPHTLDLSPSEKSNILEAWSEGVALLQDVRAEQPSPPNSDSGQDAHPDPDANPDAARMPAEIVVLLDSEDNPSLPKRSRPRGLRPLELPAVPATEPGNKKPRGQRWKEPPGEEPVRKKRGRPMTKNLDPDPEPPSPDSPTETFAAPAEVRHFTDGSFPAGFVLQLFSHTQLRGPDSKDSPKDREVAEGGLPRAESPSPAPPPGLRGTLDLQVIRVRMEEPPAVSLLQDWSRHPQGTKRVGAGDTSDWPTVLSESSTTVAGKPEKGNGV

Target: Flag-SPIN•DOC wild type (UniProt Q9BUA3)
Assay: co-IP

binding: binds
Substance: GFP-SPIN•DOC wild type (from UniProt Q9BUA3 1-381)
